# Data as given in PMC11513070.
# Results are given in words; binding and its absence hold for the method and conditions named. Binding seen in cells or lysates may run through a third protein. Here binding means that the protein was enriched with, or labelled near, the bait; the list need not be complete.
# T1: SPPL2c (Signal peptide peptidase-like 2c), endogenous in murine testis (mouse (endogenous in testis)) (UniProt A2A6C4)
# T1 sequence (chain, N-glycosylated at N106): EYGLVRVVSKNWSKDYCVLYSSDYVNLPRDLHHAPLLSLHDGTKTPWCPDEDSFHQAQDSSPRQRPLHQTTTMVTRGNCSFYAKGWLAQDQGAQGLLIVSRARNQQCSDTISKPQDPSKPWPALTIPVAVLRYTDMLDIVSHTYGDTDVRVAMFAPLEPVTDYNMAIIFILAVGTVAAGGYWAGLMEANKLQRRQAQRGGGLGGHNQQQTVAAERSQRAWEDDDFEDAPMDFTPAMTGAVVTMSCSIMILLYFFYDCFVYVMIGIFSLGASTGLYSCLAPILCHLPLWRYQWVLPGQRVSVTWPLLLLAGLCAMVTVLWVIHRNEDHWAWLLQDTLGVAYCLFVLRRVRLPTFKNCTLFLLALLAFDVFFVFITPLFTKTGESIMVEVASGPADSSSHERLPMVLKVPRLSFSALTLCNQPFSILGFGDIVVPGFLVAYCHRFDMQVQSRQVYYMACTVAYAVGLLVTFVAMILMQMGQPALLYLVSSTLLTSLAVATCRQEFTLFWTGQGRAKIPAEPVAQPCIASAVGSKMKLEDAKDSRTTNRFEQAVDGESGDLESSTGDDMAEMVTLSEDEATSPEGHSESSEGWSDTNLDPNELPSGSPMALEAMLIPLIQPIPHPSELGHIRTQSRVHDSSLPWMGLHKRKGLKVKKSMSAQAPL
# B1: calnexin, endogenous in murine testis (protein, UniProt P35564 21-591)
# chain: HDGHDDDAIDIEDDLDDVIEEVEDSKSKSDASTPPSPKVTYKAPVPTGEVYFADSFDRGSLSGWILSKAKKDDTDDEIAKYDGKWEVDEMKETKLPGDKGLVLMSRAKHHAISAKLNKPFLFDTKPLIVQYEVNFQNGIECGGAYVKLLSKTAELSLDQFHDKTPYTIMFGPDKCGEDYKLHFIFRHKNPKTGVYEEKHAKRPDADLKTYFTDKKTHLYTLILNPDNSFEILVDQSVVNSGNLLNDMTPPVNPSREIEDPEDRKPEDWDERPKIADPDAVKPDDWDEDAPSKIPDEEATKPEGWLDDEPEYIPDPDAEKPEDWDEDMDGEWEAPQIANPKCESAPGCGVWQRPMIDNPNYKGKWKPPMIDNPNYQGIWKPRKIPNPDFFEDLEPFKMTPFSAIGLELWSMTSDIFFDNFIISGDRRVVDDWANDGWGLKKAADGAAEPGVVLQMLEAAEERPWLWVVYILTVALPVFLVILFCCSGKKQSNAMEYKKTDAPQPDVKDEEGKEEEKNKRDEEEEEEKLEEKQKSDAEEDGVTGSQDEEDSKPKAEEDEILNRSPRNRKPRRE
# Molecular target: T1, SPPL2c (Signal peptide peptidase-like 2c), endogenous in murine testis (mouse (endogenous in testis))
# Experiment: affinity purification with mass spectrometry; SPPL2c precipitated with anti-SPPL2c sepharose beads from testis lysates (0.5% DDM) of wild type or SPPL2c-deficient mice; on-bead digest, nanoLC-MS/MS
binder,measurement,value
B1,binding,binds
